In all, about 390,000 compounds went through this assay and about 610 (0.16%) were called active. The shares of active, inactive and inconclusive entries below differ from those in the screen. Calls come from the whole dose curve; as a rule, active = well fitted inhibition curve with a large enough effect; inconclusive = small, poorly fitted or top-dose-only effect, or effect the other way, or another doubt; inactive = no such curve, though single readings can be large or run the other way. Potencies beside an inconclusive call are fits to weak or partial responses and may not hold up.
Assay: Nrf2 qHTS screen for inhibitors: counterscreen for cytotoxicity
Conditions: A549 ARE-Fluc cells, CellTiter-Fluor viability, 18-24 h; series mostly up to 46 µM
Summary of the method: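 A549 ARE-Fluc cells in 5% FBS OPTI-MEM, 5000 cells/well, rested 2 h then exposed to compounds in concentration-response for 18-24 h at 37 °C. Viability by CellTiter-Fluor fluorescence (Ex 405/Em 525) after 30 min; luciferase luminescence (BugLite, 15 min, RT) read afterwards.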
Potency is the fitted concentration of half-maximal effect.

| SMILES | Potency |
| --- | --- |
| CCCCCN(C(=O)NC(=O)NC(C)CC)S(C)(=O)=O (configuration not stated) | inconclusive: 7.31 µM [activator, partial curve, poor fit] |
| CC(C)S(=O)(=O)c1oc(-c2cccs2)nc1S(=O)(=O)c1ccc(F)cc1 | inconclusive: 29.1 µM [falling, single point] |
| N#C/C(=C\c1ccc(-c2ccccc2)o1)C(=O)Nn1cnnc1 | inconclusive: 16.4 µM [falling, single point] |
| Cc1cc(C)cc(NC(=O)c2cc(C)nc3ccccc23)c1 | inactive |
| O=C(CN1CCC(n2nnc3ccccc32)CC1)NCc1cccs1 | inconclusive: 5.8 µM [activator, full curve, poor fit] |
| COc1ccc(C(=O)NCCCN2CCOCC2)cc1Br | inconclusive: 23.1 µM [activator, partial curve, poor fit] |
| Cc1c(CC(=O)NCCc2ccccc2F)c(=O)oc2cc(O)c(Cl)cc12 | inactive |
| O=C(c1ccc(OC2CCN(CCc3ccccc3)CC2)cc1)N1CCCC1 | inconclusive: 9.2 µM [falling, partial curve] |
| CC(C)C[C@H]1CNC(=S)N1CC1CCCN1C[C@H](Cc1ccc(O)cc1)N1C[C@H](Cc2ccccc2)N(CC2CCCCCC2)C1=S (some centres not stated) | inactive |
| CCOC(=O)c1ccc(NC(=O)c2c(C)[nH]c(C(=O)OCC)c2C)cc1 | inactive |
| CCCCn1c(O)c(N=Nc2ccccn2)c2ccccc21 | inconclusive: 32.6 µM [falling, partial curve, poor fit] |
| C=CCNC(=O)/C(C#N)=C/c1c(N(Cc2ccccc2)Cc2ccccc2)nc2ccccn2c1=O | inconclusive: 18.4 µM [falling, partial curve, poor fit] |
| c1coc(-c2nn3c(Cn4nnc5ccccc54)nnc3s2)c1 | inactive |
| CN(C)S(=O)(=O)c1cccc(N=C2NN=C(c3ccccc3)CS2)c1 | inconclusive: 18.4 µM [falling, single point] |
| Cc1cc(/C=C2/NC(=S)NC2=O)c(C)n1-c1cccnc1 | inconclusive: 18.4 µM [falling, partial curve] |
| O=C(c1cc(COc2ccc(F)cc2Cl)on1)N1C[C@H]2CC[C@H]1C2 | inconclusive: 29.1 µM [falling, partial curve, poor fit] |
| Cc1ccc(-c2nnc(Nc3ccc(OCC(N)=O)cc3)c3ccccc23)cc1S(=O)(=O)N(C)C | inconclusive: 32.6 µM [falling, partial curve, poor fit] |
| O=c1c(-c2ccc3c(c2)OCCO3)c(C(F)(F)F)oc2cc(O)cc(O)c12 | inconclusive: 32.6 µM [falling, partial curve, poor fit] |
| Cc1ccc(-c2nc(C(=O)NCC3CCCO3)cc3c2[nH]c2ccccc23)cc1 (configuration not stated) | inactive |
| O=C(CCS(=O)(=O)c1ccc(Cl)cc1)N1CCN(c2ccccc2F)CC1 | inconclusive: 13 µM [activator, partial curve, poor fit] |
| CC(C)C(=O)NC(NCC1CCCO1)C(Cl)(Cl)Cl (configuration not stated) | inconclusive: 14.6 µM [falling, partial curve, poor fit] |

| SMILES | Potency |
| --- | --- |
| Cn1c(-[n+]2c(-c3ccccc3)cc(-c3ccccc3)cc2-c2ccccc2)nc2c([N+](=O)[O-])cccc21 | inconclusive: 25.9 µM [falling, single point] |
| O[C@@H]1COC(Nc2ccc(N=Nc3ccccc3)cc2)C[C@@H]1O (some centres not stated) | inconclusive: 23.1 µM [falling, single point] |
| COc1cccc2cc(-c3csc(-c4ccc(Cl)cc4)n3)c(=O)oc12 | inactive |
| Cc1ccc(N/C(N)=N/c2nc(C)cc(N3CCCCC3)n2)c(C)c1 | inconclusive: 20.6 µM [falling, single point] |
| COc1ccc(S(=O)(=O)N2CCOCC2)cc1N=Nc1sc(N)nc1-c1ccccc1 | inconclusive: 20.6 µM [falling, partial curve, poor fit] |
| CCc1ccc(-c2nn(CC(=O)NCc3ccccc3)c3c2cnc2ccc(C)cc23)cc1 | inactive |
| O=C(COc1ccc(C(=S)N2CCCC2)cc1)Nc1ccccc1C(F)(F)F | inconclusive: 20.6 µM [falling, partial curve, poor fit] |
| O=C(N/N=C/C=C/c1ccccc1)c1cc2c(ccc3ccccc32)o1 | inconclusive: 23.1 µM [falling, partial curve, poor fit] |
| CCn1c(SC(C)C(=O)N2CCOCC2)nc2sc(C)c(C)c2c1=O (configuration not stated) | inconclusive: 20.6 µM [falling, single point] |
| O=C(NC1CCCCC1)N(Cc1ccc(F)cc1)Cc1nc2ccccc2c(=O)[nH]1 | inactive |
| C=CCN(N=Nc1cccc([N+](=O)[O-])c1)c1cccc([N+](=O)[O-])c1 | inconclusive: 29.1 µM [activator, partial curve, poor fit] |
| CCOC(=O)c1ccc(N2C(=O)Cc3cc(OCC)c(OCC)cc3C2c2ccccc2)cc1 (configuration not stated) | inconclusive: 32.6 µM [falling, partial curve, poor fit] |
| Cn1c(SCc2ccccc2Cl)nc2c([nH]c3ccccc32)c1=O | inactive |
| COc1ccc(CN2CCC3CC2c2cc(Cl)ccc23)cc1 (configuration not stated) | inactive |
| COc1ccc(Cc2nc3ccc(C(=O)NCCCN4CCN(C)CC4)cc3o2)cc1 | inconclusive: 29.1 µM [activator, partial curve, poor fit] |
| Cc1nnc(-c2ccc(Oc3ccc(Cl)cc3)c([N+](=O)[O-])c2)o1 | inconclusive: 18.4 µM [activator, partial curve, poor fit] |
| CN(C)c1ccc(/C=C/c2cc[n+](C)cc2)cc1 | active: 20.6 µM |
| O=C(O)C(CO)N=Cc1c(O)c2ccccc2oc1=O (configuration not stated) | inconclusive: 20.6 µM [falling, partial curve, poor fit] |
| Cc1ncsc1C(=O)N1N=C2/C(=C/c3ccccc3)CCCC2C1c1ccccc1 (configuration not stated) | inactive |
| CCOc1ccc(NCc2nnc(SCc3ccc(Cl)cc3)n2-c2ccccc2)cc1 | inconclusive: 18.4 µM [falling, single point] |
| COc1cccc(C(c2sc3nc(-c4ccco4)nn3c2O)N2CCN(c3ccccc3F)CC2)c1 (configuration not stated) | inactive |

| SMILES | Potency |
| --- | --- |
| O=C(/C=C/c1ccc(Br)cc1)c1ccc(NC2=NCCCS2)cc1 | inconclusive: 18.4 µM [falling, single point] |
| CCn1c(-c2ccsc2)nc2c1c(=O)[nH]c(=O)n2Cc1ccccc1 | inconclusive: 2.59 µM [activator, full curve, poor fit] |
| O=C1c2ccccc2-c2onc3ccc(NCc4ccco4)c1c23 | inconclusive: 16.4 µM [falling, single point] |
| CN1CCN(C(=O)CCCN2C(=O)/C(=C/c3cccc(Br)c3)SC2=S)CC1 | inconclusive: 20.6 µM [falling, single point] |
| COc1ccc(NC(=O)C(C)Sc2cc(-c3ccccc3)nc(C)n2)cc1Cl (configuration not stated) | inconclusive: 32.6 µM [falling, partial curve, poor fit] |
| CCOc1ccccc1N1CC(O)=C(c2nc3ccccc3s2)C1=N | inactive |
| CC(Nc1nc(N2CCN(CCO)CC2)nc2ccccc12)c1ccccc1 (configuration not stated) | inconclusive: 29.1 µM [falling, single point] |
| C#CCOCCOCCOCCNc1nc(N2CCN(C(=O)[C@H](Cc3cc4ccccc4[nH]3)n3cc([C@@H](N)Cc4ccc(O)cc4)nn3)CC2)nc(N2CCN(C(=O)[C@H](Cc3cc4ccccc4[nH]3)n3cc([C@@H](N)CC(C)C)nn3)CC2)n1 | inconclusive: 32.6 µM [falling, partial curve, poor fit] |
| COc1cccc2sc(Nc3nc(-c4cc5ccccc5oc4=O)cs3)nc12 | inactive |
| COc1cccc(C2C(C(=O)c3cc4ccccc4o3)=C(O)C(=O)N2c2cc(C)on2)c1OC (configuration not stated) | inconclusive: 23.1 µM [falling, single point] |
| CSc1ccc(CN(C)C(=O)c2cc(S(=O)(=O)NCc3ccccc3)ccc2C)cc1 | inconclusive: 29.1 µM [falling, partial curve, poor fit] |
| COc1cc(/C=C(/C#N)c2nc3ccccc3[nH]2)ccc1OCC(=O)Nc1ccccc1C | inconclusive: 0.82 µM [activator, partial curve, poor fit] |
| Cc1cccc(NC(=O)CSC2=Nc3ccccc3C3=NC(CCC(=O)NCc4ccc(F)cc4)C(=O)N23)c1 (configuration not stated) | inconclusive: 32.6 µM [falling, partial curve, poor fit] |
| O=C(Nc1ccccc1SCC1CSc2nc3ccccc3c(=O)n21)c1cccc(Cl)c1 (configuration not stated) | inconclusive: 18.4 µM [falling, partial curve] |
| O=C(Nc1ccc2sc3ccccc3c(=O)c2c1)c1ccccc1Cl | inconclusive: 1.3 µM [falling, partial curve] |
| CCOc1ccc(-c2[nH]ncc2-c2ccc(OC)c(OC)c2)c(O)c1 | inconclusive: 29.1 µM [falling, single point] |
| Cc1oc2c(c1C(=O)N1CCC(C)CC1)C(=O)c1ccccc1C2=O | inconclusive: 16.4 µM [falling, single point] |
| COC(=O)c1[nH]c2c(c1C)C(=O)CC(c1cccc(OC)c1)C2 (configuration not stated) | inconclusive: 1.46 µM [falling, full curve] |
| O=C(N/N=C1\CC2CC=CC12)c1ccc(COc2ccccc2)cc1 (configuration not stated) | inconclusive: 29.1 µM [activator, single point] |
| Cc1ccc(C)n1-n1cnc2sc(-c3ccccc3)cc2c1=O | inconclusive: 6.51 µM [falling, partial curve, poor fit] |
